Broadly, the AC50 is the concentration giving half of the maximal activity seen.

Data on nine compounds can be found in PubChem BioAssay (NCATS).

A short description of assay [1]: Validation of Assay for Modulators of Lamin A Splicing (AID 1459). To be noted: Lamin A splicing dual RFP/GFP fluorescence reporter, ratio. The essentials: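 Readout: ratio of GFP (500-530 nm) to RFP (575-640 nm) total object intensity by 488 nm laser-scanning cytometry after 48 hrs. Cells were HeLa S3 clones carrying lamin A-EGFP minigene plus DsRed2 viability reporter; vehicle 0.5% DMSO final.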

The nature of assay [2]: qHTS Assay for Lipid Storage Modulators (AID 1519). As to conditions: Drosophila S3 cells, BODIPY lipid droplet/cell ratio, laser cytometry, cells loaded with oleic acid. The essentials:
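Cells seeded at 5,000 per well were treated with compounds over a concentration series and loaded with oleic acid (400 uM, as added). Lipid droplet fluorescence (488 nm excitation, 500-530 nm channel) was read by laser-scanning cytometry and normalized to 20 uM Triacsin C.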

A short description of assay [3]: qHTS Validation Assay to Find Inhibitors of Chronic Active B-Cell Receptor Signaling (AID 485345). As to conditions: ABC-DLBCL cells, chronic BCR signaling reporter. The procedure, abridged: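 TMD8 ABC-DLBCL cells stably carrying doxycycline-inducible IkappaBalpha–green luciferase fusion plus unfused red luciferase; compounds 46 uM to 3 nM, 4 h at 37C with doxycycline. Corrected green/red luminescence ratio normalized to 10 uM MG-132 and basal cell wells; curves fitted.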
Background: Quantitative high-throughput screening tests each substance at several concentrations.

Assay [4] is described as follows: qHTS assay for small molecule antagonists of androgen receptor signaling (AID 588516). As to conditions: AR-UAS-bla HEK293, beta-lactamase ratio, antagonist mode, 16 h. The essentials: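 Antagonist mode: inhibition of R1881-stimulated (10 nM final) bla reporter in GeneBLAzer AR HEK 293 cells, 16 h at 37C, compounds titrated. IC50 and efficacy from Hill-equation fits of 405/460–530 nm FRET ratios.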

The nature of assay [5]: qHTS assay for small molecule antagonists of peroxisome proliferator-activated receptor delta signaling (AID 588535).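 Note: cells co-treated with a PPAR-delta agonist as stimulator during compound exposure.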 As to conditions: HEK293T PPARd-UAS-bla, beta-lactamase FRET ratio, 18 h; 460 nm channel. The procedure, abridged:
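Beta-lactamase reporter read-out (405 nm excitation, 460/530 nm emission) after CCF4 loading for 2 hrs at RT. HEK293T PPAR-delta-UAS-bla cells, 2% charcoal/dextran FBS, compounds for 18 hrs at 37 C. Hill fit gave IC50 and efficacy.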

A short description of assay [6]: qHTS assay for small molecule agonists of retinoid X receptor alpha signaling (AID 588544). To be noted: HEK293T RXRa-UAS-bla, beta-lactamase reporter, 18 h; 530 nm emission.
Assay [7] is described as follows: qHTS assay for small molecule antagonists of retinoid X receptor alpha signaling (AID 588546).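 Note: cells stimulated with 9-cis-retinoic acid as agonist; % is set by controls: 0 for no effect and ±100 for the full control effect.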 To be noted: HEK293T RXRa-UAS-bla, beta-lactamase ratio, antagonist mode; measured here: W530 green channel, cytotoxicity proxy. The essentials: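 Beta-lactamase reporter inhibition, read as CCF4 fluorescence ratio (ex 405, em 460/530 nm) after 2 h at RT. HEK293T UAS-bla cells, 2500/well, were stimulated with 9-cis-RA at 500 or 100 nM final alongside test compound for 18 h at 37 C.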

Assay [8] can be described thus: S16 Schwann cell PMP22 intronic element beta-lactamase assay (AID 624044). To be noted: S16 rat Schwann cells, PMP22 element beta-lactamase FRET, 24 h; measured here: 460 nm blue channel. The essentials: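 Beta-lactamase reporter under a PMP22 intronic regulatory element in stable S16 rat Schwann cells; 24 h compound exposure. 460 nm blue signal normalized between DMSO (0%) and potassium clavulanate, with 535 nm FRET tracking viability; curves classed by r2 and response.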

Assay [9] in a line: A High-Content qHTS Against Drug Library for the Identification of Small Molecules that Inhibit DYT1 Early Onset Primary Dystonia-Associated Cell Pathology (AID 1645839). To be noted: HEK293 Flp-In EGFP-delE TorsinA, punctate imaging, 48 h; measured here: cell count cytotoxicity. The procedure, abridged:
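Cells were seeded and left for 24 h, then dosed with compound alongside tetracycline induction of mutant EGFP-TorsinA. They were incubated for 48 h, fixed in 4% paraformaldehyde, permeabilized and imaged for mislocalization (%pathology) and cell count.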

Assay [10] is described as follows: qHTS for identification of novel therapeutic agents for treatment of microphthalmiaassociated transcription factor (MiT) renal cell carcinoma (RCC) (AID 1963991). As to conditions: CellTiter-Glo, 48 h; for z-score: stronger effect = lower value; for AC50: measured here: UOK145 cell viability. The procedure, abridged: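 Curves over 11 concentrations were fitted to CellTiter-Glo luminescence, scaled between empty wells (0%) and DMSO (100%) viability. Cells were UOK109, UOK124 and UOK145 TFE3-fusion RCC lines at 500/well, exposed 48 hours at 37 C.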

Assay [11] can be described thus: qHTS Assay for Modulators of Human Peripheral Myelin Protein 22 (PMP22) Expression/Activity (AID 1967). To be noted: Cell-based PMP22 reporter, dual-color luciferase ratio. The essentials: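 Mouse MSC80 Schwann line, Pmp22 promoter–CBG68 reporter, EF-alpha–CBR internal control. 24h compound exposure, 37 °C/5% CO2, DMEM + 10% FBS. Readout: corrected green/red luminescence ratio, normalized to untreated cells; concentration-response curves fitted and classified.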

Assay [12] is described as follows: Nrf2 qHTS screen for inhibitors: Validation (AID 493153). To be noted: A549 ARE-Fluc reporter, 18-24 h; AC50: CellTiter-Fluor fluorescence read, measured here: cytotoxicity CellTiter-Fluor AC50; viability change: measured here: cytotoxicity max response. The procedure, abridged: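 In this counterscreened reporter format, each well gives two signals: CellTiter-Fluor fluorescence for cytotoxicity and ARE-luciferase luminescence for Nrf2 function. A549 ARE_Fluc cells in 5% FBS OPTI-MEM were exposed to compound titrations for 18-24 h.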

Assay [13] is described as follows: qHTS Assay for Inhibitors of PDE-IV (AID 607). To be noted: HEK293 ACTOne CNG channel cells, membrane potential fluorescence; measured here: parental cell counter-screen. The procedure, abridged: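 Cell-based read-out of cAMP via a modified cyclic nucleotide-gated channel and membrane potential dye (535/590 nm) in HEK293 cells expressing PDE4 endogenously. Compounds tested up to 22.9 uM final; 100 uM RO 20-1724 reference.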

Setting [14] is: measured here: cell count channel max response.
The mark [15] stands for this setting: measured here: cell number channel AC50.
Setting [16] is: measured here: lipid (BODIPY) channel AC50.
[17] abbreviates: measured here: lipid channel max response.
[18] abbreviates: measured here: CBR control luciferase (viability counter).
Where [19] appears, read: TFE3-RCC UOK109 viability, measured here: UOK109 Z-AUC.
Where [20] appears, read: TFE3-RCC viability, measured here: UOK124 Z-AUC.
Where [21] appears, read: TFE3-RCC viability, measured here: UOK145 Z-AUC.
Where [22] appears, read: measured here: red reporter channel AC50, EF-alpha promoter control reporter in MSC80 mouse Schwann cells.
[23] abbreviates: measured here: CBG/CBR ratio read-out.
[24] abbreviates: measured here: green reporter channel AC50, mouse Pmp22 promoter in mouse Schwann cells.

Each structure is given as a SMILES string. Several values for one entry are separate records, joined by “and”; a condition that tells them apart may be missing. Equal values may be shown once. The list shows a part of the results. The main result of the screen is listed elsewhere. These columns were measured beside it and carry no call. The list favours compounds with an active or inconclusive main result. For part of these data: Words in brackets tell the shape of the fitted curve; partial curves, single points and poor fits give uncertain potencies.

Take `O=S(=O)(O)C1CCNCC1`: the half-maximal activity concentration (AC50) was 35.5 µM [rising, single point] in [1] (measured here: GFP channel); 39.8 µM [rising, single point] in [2] (setting [15]); 39.8 µM [rising, single point] in assay [2] (setting [16]). Further, the max response stood at 36.2% in [2] (setting [14]) and 38.4% in assay [2] (setting [17]).
Regarding `O=c1c(-c2ccc(O)cc2)coc2cc(O)cc(O)c12`, the AC50 is 28.2 µM [falling, single point] in assay [1] (measured here: GFP channel); 39.8 µM [falling, single point] in [2] (setting [15]); 12.6 µM [falling, partial curve] and 39.8 µM [falling, single point] in [2] (setting [16]); 4.61 µM [rising, full curve, poor fit] in assay [3] (setting [18]); 20 µM [falling, partial curve, poor fit] in [4] (measured here: W460 blue channel fit); 3.55 µM [rising, full curve, poor fit] in assay [4] (measured here: W530 green channel, cytotoxicity/artifact). Besides, the AC50 is 25.1 µM [falling, partial curve] in assay [8]; 0.562 µM [falling, full curve, poor fit] in assay [9]; 20.9 µM [falling, partial curve, poor fit] in [10] (TFE3-RCC viability). Also, the max response is -10.5% and -64.6% in assay [2] (setting [14]); -46.7% and -68% in assay [2] (setting [17]); 6.8% and 1.05% in assay [5]; 27.6% and 30.9% in [6]; 36.3% in [7]. The figures for the z-score in assay [10] (setting [19]), in assay [10] (setting [20]) and in assay [10] (setting [21]) were 0.52, -0.488 and -0.234, respectively.
For the compound `CN(C)c1ccc(/C=C2\C(=O)Nc3ccccc32)cc1`, the AC50 was 35.5 µM [falling, single point] in assay [1] (measured here: GFP channel); 11.2 µM [falling, partial curve, poor fit] in assay [1] (measured here: RFP channel); 53.6 µM [falling, partial curve, poor fit] in assay [11] (setting [22]); 4.11 µM [falling, single point] in assay [3] (setting [23]); 14.6 µM [falling, partial curve] in assay [3] (setting [18]); 14.6 µM [falling, partial curve, poor fit] in assay [12]. In [12], the viability change was -23.6%.
Consider `O=C(O)Cc1c[nH]c2ccc(O)cc12`, for which the concentration at half-maximal activity (AC50) in [1] (measured here: GFP channel) is 35.5 µM [falling, single point]; in assay [1] (measured here: RFP channel), 35.5 µM [falling, single point]; in [11] (setting [24]), 42.6 µM [falling, partial curve]; in assay [11] (setting [22]), 42.6 µM [falling, partial curve]; in assay [3] (setting [23]), 16.4 µM [falling, single point]; in assay [3] (setting [18]), 20.6 µM [falling, single point].
Regarding `O=c1cc(N2CCOCC2)oc2c(-c3ccccc3)cccc12`, the half-maximal activity concentration (AC50) in [1] (measured here: GFP channel) is 7.08 µM [falling, partial curve, poor fit]; in assay [2] (setting [15]), 3.55 µM [rising, full curve] and 11.2 µM [falling, partial curve, poor fit]; in [2] (setting [16]), 10 µM [falling, partial curve, poor fit]; in assay [11] (setting [24]) it was 33.8 µM [falling, partial curve]; in [11] (setting [22]), 12 µM [falling, partial curve]; in [10] (TFE3-RCC viability), 18.7 µM [falling, partial curve]. The max response in assay [2] (setting [14]) is 88.4% and 32.8%; in assay [2] (setting [17]) it was 120% and 32.9%. The figures for the z-score in assay [10] (setting [19]), in [10] (setting [20]) and in assay [10] (setting [21]) were -0.816, -1.77 and 0.153, respectively.
In the case of `NC(N)=N[C@@H](CCC(=O)O)C(=O)O`, the concentration at half-maximal activity (AC50) is 5.01 µM [falling, single point] in assay [1] (measured here: RFP channel); 39.8 µM [rising, single point] in assay [2] (setting [15]); 39.8 µM [rising, single point] in [2] (setting [16]); 37.9 µM [falling, single point] in [11] (setting [22]). Further, the figures for the max response in assay [2] (setting [14]) and in [2] (setting [17]) were 49.4% and 48.8%, respectively.
With `CCCCCCCCCCCCCCCCCC(=O)NCC(COP(=O)([O-])OCC[N+](C)(C)C)OCC` (configuration not stated), the AC50 was 7.08 µM [falling, partial curve] in assay [1] (measured here: GFP channel); 6.31 µM [falling, full curve] in assay [1] (measured here: RFP channel); 23.1 µM [falling, partial curve] in assay [3] (setting [18]).
As for `NC(=Nc1ccccc1)NC(=O)c1nc(Cl)c(N)nc1N`, the AC50 was 10 µM [falling, partial curve, poor fit] in assay [1] (measured here: RFP channel); 4.47 µM [falling, full curve, poor fit] in assay [2] (setting [15]); 4.47 µM [falling, full curve, poor fit] in [2] (setting [16]); 84.9 µM [falling, single point] in [11] (setting [24]); 33.8 µM [falling, partial curve] in [11] (setting [22]); 16.4 µM [falling, partial curve] in assay [3] (setting [23]). For the same compound, the concentration at half-maximal activity (AC50) in assay [3] (setting [18]) is 20.6 µM [falling, partial curve]. The max response in [2] (setting [14]) was -14.9%; in assay [2] (setting [17]), -15.5%.
For the compound `CCCN(CC1CC1)c1nc(C)nc(Nc2c(Cl)cc(Cl)cc2Cl)c1Cl`, the half-maximal activity concentration (AC50) was 20 µM [rising, single point] in assay [13]; 35.5 µM [rising, single point] in assay [1] (measured here: GFP channel); 3.16 µM [rising, full curve] in [2] (setting [15]); 3.16 µM [rising, full curve] in assay [2] (setting [16]); 84.9 µM [falling, single point] in assay [11] (setting [24]); 95.3 µM [falling, single point] in assay [11] (setting [22]). The max response in assay [2] (setting [14]) is 69.6%; in [2] (setting [17]), 95.8%.
